Results are given in words; binding and its absence hold for the method and conditions named. In cells and extracts the contact can be indirect. For some of these results: A result given as binding can be weak or reduced; the word gives no strength. Sequences can lack the tags named with a protein.
Key:
Test in all cases: co-IP; 293 cells cotransfected with N-terminally HA-tagged human RICH2 and tetherin; IP with anti-tetherin antibody; blots for HA and tetherin
[1] = target: African green monkey (AGM) tetherin (African green monkey (AGM))
[2] = target: chimpanzee tetherin (chimpanzee) (UniProt D7RVC2)
[3] = target: rhesus macaque tetherin (rhesus macaque)
[4] = target: gorilla tetherin (gorilla)

B1: N-terminally HA-tagged human RICH2 (protein, UniProt Q17R89 1-818)
chain: MKKQFNRMRQLANQTVGRAEKTEVLSEDLLQVEKRLELVKQVSHSTHKKLTACLQGQQGAEADKRSKKLPLTTLAQCLMEGSAILGDDTLLGKMLKLCGETEDKLAQELIHFELQVERDVIEPLFLLAEVEIPNIQKQRKHLAKLVLDMDSSRTRWQQTSKSSGLSSSLQPAGAKADALREEMEEAANRVEICRDQLSADMYSFVAKEIDYANYFQTLIEVQAEYHRKSLTLLQAVLPQIKAQQEAWVEKPSFGKPLEEHLTISGREIAFPIEACVTMLLECGMQEEGLFRVAPSASKLKKLKAALDCCVVDVQEYSADPHAIAGALKSYLRELPEPLMTFELYDEWIQASNVQEQDKKLQALWNACEKLPKANHNNIRYLIKFLSKLSEYQDVNKMTPSNMAIVLGPNLLWPQAEGNITEMMTTVSLQIVGIIEPIIQHADWFFPGEIEFNITGNYGSPVHVNHNANYSSMPSPDMDPADRRQPEQARRPLSVATDNMMLEFYKKDGLRKIQSMGVRVMDTNWVARRGSSAGRKVSCAPPSMQPPAPPAELAAPLPSPLPEQPLDSPAAPALSPSGLGLQPGPERTSTTKSKELSPGSAQKGSPGSSQGTACAGTQPGAQPGAQPGASPSPSQPPADQSPHTLRKVSKKLAPIPPKVPFGQPGAMADQSAGQPSPVSLSPTPPSTPSPYGLSYPQGYSLASGQLSPAAAPPLASPSVFTSTLSKSRPTPKPRQRPTLPPPQPPTVNLSASSPQSTEAPMLDGMSPGESMSTDLVHFDIPSIHIELGSTLRLSPLEHMRRHSVTDKRDSEEESESTAL
[1]
  binding: no binding
[2]
  binding: binds
[3]
  binding: binds
[4]
  binding: binds
